The record followed here is US20150258143A1.

Chains of the proteins cited; added tags and fusions are not shown. Residues count along the entry.
UniProt P39688, residues 2-537: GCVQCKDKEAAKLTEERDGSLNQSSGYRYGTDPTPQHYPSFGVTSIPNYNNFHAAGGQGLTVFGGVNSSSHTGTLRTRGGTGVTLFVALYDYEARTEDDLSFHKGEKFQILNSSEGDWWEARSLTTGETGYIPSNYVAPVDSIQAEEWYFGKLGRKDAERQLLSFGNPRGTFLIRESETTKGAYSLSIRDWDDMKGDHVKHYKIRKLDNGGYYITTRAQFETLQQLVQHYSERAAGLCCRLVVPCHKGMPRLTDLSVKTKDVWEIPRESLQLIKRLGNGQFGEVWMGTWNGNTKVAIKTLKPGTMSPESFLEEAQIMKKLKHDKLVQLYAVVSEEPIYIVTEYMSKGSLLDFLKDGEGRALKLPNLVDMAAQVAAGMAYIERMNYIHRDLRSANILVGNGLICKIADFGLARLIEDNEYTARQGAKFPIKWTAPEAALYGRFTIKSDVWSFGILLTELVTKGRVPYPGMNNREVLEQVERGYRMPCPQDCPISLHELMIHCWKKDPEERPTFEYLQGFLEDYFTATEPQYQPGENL

These are yes or no findings as the source states them, for the method shown. In cells and extracts the contact can be indirect. Some binding calls cover weakened binding; strength is not graded here.

In the assay the target is T1, ADAP (mouse) (UniProt O35601).
T1 sequence: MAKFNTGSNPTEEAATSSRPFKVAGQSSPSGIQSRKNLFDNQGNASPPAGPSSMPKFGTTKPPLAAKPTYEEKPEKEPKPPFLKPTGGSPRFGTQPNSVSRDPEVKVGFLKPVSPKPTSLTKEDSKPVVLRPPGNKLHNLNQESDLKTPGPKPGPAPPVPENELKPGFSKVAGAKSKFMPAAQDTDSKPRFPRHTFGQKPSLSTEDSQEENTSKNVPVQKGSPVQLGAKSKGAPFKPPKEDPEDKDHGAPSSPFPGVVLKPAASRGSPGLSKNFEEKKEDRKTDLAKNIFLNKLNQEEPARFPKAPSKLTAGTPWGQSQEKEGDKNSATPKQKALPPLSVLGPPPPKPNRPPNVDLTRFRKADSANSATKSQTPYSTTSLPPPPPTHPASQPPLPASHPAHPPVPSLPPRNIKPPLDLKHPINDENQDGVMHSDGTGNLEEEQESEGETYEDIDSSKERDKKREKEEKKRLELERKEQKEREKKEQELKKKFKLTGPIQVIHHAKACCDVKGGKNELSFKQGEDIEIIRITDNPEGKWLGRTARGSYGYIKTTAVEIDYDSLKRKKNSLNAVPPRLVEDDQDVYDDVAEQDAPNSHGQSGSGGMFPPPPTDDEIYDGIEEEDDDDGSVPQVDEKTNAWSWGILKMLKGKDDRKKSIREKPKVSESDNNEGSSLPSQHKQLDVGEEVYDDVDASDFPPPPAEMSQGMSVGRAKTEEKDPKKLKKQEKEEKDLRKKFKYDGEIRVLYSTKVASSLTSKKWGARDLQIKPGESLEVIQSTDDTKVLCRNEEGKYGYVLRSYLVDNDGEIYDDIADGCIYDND
The experiment in a line: co-immunoprecipitation from NK cell lysates after CD137-mediated activation (blots of FIG. 13).

In the case of “Fyn (from UniProt P39688 2-537) (enzyme)”, the binding result is given as “binds”.
